Publication PMC3496474
These are yes or no findings as the source states them, for the method shown. Binding seen in cells or lysates may run through a third protein. Some entries that bind do so weakly or less than the wild type.

The chains behind the UniProt entries cited, without tags or fusion partners.
UniProt Q6QI06: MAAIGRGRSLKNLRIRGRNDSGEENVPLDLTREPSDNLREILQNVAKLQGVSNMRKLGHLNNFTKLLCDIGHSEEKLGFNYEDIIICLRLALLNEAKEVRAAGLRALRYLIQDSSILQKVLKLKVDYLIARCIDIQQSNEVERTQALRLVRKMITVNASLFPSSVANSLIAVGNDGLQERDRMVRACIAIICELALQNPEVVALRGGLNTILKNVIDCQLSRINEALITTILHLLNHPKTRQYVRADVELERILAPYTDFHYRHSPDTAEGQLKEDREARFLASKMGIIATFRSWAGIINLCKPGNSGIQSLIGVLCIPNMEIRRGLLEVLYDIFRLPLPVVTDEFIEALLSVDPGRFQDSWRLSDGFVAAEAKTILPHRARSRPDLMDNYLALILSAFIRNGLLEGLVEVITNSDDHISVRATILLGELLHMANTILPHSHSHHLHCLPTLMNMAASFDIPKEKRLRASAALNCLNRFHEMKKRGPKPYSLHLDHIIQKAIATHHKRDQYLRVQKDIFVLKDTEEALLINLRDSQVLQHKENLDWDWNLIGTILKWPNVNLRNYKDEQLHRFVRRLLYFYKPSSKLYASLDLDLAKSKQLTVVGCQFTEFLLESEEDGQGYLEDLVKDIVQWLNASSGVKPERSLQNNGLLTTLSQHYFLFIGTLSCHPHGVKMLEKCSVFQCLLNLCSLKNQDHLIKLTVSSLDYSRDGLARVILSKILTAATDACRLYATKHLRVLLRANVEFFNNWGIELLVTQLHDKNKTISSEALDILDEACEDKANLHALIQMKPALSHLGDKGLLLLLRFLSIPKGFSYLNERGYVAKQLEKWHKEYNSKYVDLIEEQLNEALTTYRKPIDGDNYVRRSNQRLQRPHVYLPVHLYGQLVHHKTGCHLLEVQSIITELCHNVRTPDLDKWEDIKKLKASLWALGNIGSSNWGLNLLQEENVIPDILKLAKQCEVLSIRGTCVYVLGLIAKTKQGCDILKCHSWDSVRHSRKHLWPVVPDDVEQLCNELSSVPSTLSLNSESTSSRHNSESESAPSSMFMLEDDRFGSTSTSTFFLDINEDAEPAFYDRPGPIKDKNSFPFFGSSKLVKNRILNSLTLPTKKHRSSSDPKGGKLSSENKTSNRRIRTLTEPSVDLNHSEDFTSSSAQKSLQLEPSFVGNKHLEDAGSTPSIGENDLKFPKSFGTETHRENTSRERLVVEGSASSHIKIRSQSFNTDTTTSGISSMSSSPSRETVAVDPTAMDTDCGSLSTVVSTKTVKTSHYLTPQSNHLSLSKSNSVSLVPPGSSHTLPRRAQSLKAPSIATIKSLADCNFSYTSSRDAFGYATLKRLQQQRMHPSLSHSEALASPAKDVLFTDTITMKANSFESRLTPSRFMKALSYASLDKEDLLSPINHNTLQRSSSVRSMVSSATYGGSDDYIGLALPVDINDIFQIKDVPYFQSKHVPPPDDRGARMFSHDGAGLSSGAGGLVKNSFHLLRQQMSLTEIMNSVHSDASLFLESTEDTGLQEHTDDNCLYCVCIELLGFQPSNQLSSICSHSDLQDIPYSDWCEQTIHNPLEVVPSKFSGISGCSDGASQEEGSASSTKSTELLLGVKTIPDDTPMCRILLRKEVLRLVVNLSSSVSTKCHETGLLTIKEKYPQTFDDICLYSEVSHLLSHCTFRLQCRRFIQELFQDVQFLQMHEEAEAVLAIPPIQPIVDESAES

Molecular target: T1, IRS2 (CD1 mouse kidney) (mouse (endogenous in CD1 mouse kidney)) (UniProt P81122)
T1 sequence: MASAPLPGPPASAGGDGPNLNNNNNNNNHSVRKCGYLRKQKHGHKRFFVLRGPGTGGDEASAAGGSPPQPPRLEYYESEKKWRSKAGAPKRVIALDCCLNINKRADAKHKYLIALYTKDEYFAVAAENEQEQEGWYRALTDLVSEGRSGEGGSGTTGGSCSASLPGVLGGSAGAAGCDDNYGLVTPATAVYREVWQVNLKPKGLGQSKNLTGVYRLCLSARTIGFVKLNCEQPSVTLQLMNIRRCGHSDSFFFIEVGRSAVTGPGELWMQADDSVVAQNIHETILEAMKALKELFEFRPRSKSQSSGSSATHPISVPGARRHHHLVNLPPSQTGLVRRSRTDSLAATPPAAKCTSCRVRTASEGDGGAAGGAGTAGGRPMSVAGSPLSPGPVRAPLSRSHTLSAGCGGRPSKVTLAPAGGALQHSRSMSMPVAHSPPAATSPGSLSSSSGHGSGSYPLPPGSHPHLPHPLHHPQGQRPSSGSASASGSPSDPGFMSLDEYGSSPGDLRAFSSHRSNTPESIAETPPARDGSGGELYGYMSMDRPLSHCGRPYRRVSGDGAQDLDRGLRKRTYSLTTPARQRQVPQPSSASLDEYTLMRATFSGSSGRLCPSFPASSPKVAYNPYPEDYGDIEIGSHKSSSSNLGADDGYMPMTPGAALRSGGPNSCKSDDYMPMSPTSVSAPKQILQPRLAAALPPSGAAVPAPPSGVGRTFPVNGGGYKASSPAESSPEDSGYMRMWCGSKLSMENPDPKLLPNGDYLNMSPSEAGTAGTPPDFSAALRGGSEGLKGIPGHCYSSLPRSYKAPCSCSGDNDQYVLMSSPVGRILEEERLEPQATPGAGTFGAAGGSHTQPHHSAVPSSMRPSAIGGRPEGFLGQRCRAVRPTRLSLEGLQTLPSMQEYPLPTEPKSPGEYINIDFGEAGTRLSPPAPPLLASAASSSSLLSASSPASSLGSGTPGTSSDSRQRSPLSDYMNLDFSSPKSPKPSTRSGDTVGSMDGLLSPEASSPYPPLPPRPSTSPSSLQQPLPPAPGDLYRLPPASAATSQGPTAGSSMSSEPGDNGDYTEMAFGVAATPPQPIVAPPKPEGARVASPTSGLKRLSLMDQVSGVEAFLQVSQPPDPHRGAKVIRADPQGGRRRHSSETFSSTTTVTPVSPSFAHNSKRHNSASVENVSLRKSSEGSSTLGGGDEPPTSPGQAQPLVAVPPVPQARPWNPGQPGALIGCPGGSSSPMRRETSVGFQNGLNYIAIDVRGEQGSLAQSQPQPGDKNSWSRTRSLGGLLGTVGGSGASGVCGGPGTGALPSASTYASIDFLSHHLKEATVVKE
Experiment: co-IP; kidney tissue homogenised in CelLytic M, diluted in PBS, about 1.5 mg total protein with 30 ug agarose-conjugated anti-IRS2 antibody, overnight at 8 °C, one wash in ice-cold PBS, elution in 0.1 M glycine; eluates assayed for Rictor and IGF1R by ELISA, result as Rictor::IGF1R ratio (AU); animals: Dahl rats on high-salt diet with saline or nephrilin, CD1 mice sham or rhabdomyolysis (glycerol) with saline or nephrilin

Substance: Rictor (CD1 mouse kidney) (from UniProt Q6QI06 1-1708)
- binding: binds
